Measured values reported in publication PMC4039143.

Target: C-terminally V5-tagged AMF (human) (UniProt P06744)
Test: affinity purification with mass spectrometry; extracts of HEK293T cells overexpressing AMF-V5 loaded on anti-V5-coupled magnetic beads; immunocomplex resolved by SDS-PAGE; all bands except AMF-V5 subjected to LC-MS/MS

binding: binds
Substance: TRIM25 (tripartite motif-containing protein 25), found with AMF-V5 in HEK293T extract (from UniProt Q14258 1-630)

Results are given in words; binding and its absence hold for the method and conditions named. Binding seen in cells or lysates may run through a third protein. A yes stands for co-enrichment or nearness to the bait. Other partners may have been found.
